Assay results as given in US20080274096A1, “Fusion Proteins Having a Modulated Half-Life in Plasma” (ASTRAZENECA AB, priority 2005, published 2008).
Results are given in words; binding and its absence hold for the method and conditions named. Some results given as binding are weak or reduced against the parent protein; the word gives no strength.

Tests used:
[1] = molecular target: IDE-Fc (IgG4) fusion protein (human); assay: Protein A affinity chromatography, low pH elution
[2] = molecular target: Neprilysin-Fc (IgG4) fusion protein (human); assay: Protein A affinity chromatography, low pH elution
[3] = molecular target: IDE-Fc (IgG4) fusion protein (human); assay: solid-phase extraction from cell supernatant
[4] = molecular target: IDE-Fc (IgG4) fusion protein (human); assay: Protein A affinity chromatography, high salt elution
[5] = molecular target: Neprilysin-Fc (IgG4) fusion protein (human); assay: as above

- binding [1]: binds
- binding [2]: binds
- binding [3]: binds
- binding [4]: binds
- binding [5]: binds
Substance: Protein A (Protein A sepharose, GE Healthcare) (from UniProt P38507 37-327)
